The supplement of paper PMC10849652
The list shows a part of the results.

By UniProt entry, the sequences of proteins in these tests, tags left out. Where a name states a change or a piece, a line headed by the entry shows the natural chain unless it says otherwise.
UniProt Q9HCC0: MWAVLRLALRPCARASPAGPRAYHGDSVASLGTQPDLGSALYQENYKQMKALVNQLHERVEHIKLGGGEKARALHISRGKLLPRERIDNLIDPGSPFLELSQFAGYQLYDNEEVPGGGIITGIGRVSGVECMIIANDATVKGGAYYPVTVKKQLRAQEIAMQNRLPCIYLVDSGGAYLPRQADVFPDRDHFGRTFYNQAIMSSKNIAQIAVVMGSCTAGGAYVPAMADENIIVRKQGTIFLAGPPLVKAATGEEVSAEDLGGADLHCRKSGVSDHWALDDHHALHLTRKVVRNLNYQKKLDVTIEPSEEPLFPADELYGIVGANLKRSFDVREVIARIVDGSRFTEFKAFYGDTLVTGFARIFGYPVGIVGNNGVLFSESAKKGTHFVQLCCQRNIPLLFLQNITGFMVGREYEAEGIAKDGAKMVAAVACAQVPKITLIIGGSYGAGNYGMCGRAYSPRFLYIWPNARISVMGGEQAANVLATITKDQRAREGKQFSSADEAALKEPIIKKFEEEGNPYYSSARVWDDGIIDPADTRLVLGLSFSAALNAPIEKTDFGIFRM
UniProt P25205: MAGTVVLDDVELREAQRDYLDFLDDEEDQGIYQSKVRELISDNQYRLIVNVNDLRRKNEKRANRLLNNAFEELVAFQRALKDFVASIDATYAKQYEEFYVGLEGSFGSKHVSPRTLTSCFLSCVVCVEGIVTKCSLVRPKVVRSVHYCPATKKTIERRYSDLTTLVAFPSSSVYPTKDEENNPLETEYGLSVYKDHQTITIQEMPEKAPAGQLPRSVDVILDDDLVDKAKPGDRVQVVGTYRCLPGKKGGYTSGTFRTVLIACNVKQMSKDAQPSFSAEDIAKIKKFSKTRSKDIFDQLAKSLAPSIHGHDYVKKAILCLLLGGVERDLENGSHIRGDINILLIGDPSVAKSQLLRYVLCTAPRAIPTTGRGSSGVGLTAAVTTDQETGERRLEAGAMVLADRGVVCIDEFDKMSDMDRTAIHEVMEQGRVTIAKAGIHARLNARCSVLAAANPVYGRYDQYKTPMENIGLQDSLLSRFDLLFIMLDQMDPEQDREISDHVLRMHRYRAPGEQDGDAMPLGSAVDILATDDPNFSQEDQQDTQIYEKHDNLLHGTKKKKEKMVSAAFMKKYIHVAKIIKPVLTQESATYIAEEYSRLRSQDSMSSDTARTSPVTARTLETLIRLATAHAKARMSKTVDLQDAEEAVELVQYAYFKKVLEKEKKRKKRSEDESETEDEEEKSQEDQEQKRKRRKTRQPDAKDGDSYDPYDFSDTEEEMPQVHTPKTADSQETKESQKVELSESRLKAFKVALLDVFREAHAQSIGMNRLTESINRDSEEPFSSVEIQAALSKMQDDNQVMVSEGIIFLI
UniProt Q6NUT3: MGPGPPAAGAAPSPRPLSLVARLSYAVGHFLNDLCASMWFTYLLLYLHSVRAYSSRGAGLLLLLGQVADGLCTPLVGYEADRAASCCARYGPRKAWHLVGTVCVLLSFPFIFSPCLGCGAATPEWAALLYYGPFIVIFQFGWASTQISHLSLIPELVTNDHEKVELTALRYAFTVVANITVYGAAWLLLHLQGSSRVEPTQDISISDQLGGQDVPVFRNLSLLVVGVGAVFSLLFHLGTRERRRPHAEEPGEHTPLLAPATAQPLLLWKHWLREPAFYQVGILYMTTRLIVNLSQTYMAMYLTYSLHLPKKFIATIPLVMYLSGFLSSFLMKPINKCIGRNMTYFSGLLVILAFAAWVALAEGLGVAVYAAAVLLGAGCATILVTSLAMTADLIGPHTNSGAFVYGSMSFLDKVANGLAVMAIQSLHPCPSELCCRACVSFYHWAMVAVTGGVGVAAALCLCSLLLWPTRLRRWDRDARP
UniProt P49736, whole entry, looked up: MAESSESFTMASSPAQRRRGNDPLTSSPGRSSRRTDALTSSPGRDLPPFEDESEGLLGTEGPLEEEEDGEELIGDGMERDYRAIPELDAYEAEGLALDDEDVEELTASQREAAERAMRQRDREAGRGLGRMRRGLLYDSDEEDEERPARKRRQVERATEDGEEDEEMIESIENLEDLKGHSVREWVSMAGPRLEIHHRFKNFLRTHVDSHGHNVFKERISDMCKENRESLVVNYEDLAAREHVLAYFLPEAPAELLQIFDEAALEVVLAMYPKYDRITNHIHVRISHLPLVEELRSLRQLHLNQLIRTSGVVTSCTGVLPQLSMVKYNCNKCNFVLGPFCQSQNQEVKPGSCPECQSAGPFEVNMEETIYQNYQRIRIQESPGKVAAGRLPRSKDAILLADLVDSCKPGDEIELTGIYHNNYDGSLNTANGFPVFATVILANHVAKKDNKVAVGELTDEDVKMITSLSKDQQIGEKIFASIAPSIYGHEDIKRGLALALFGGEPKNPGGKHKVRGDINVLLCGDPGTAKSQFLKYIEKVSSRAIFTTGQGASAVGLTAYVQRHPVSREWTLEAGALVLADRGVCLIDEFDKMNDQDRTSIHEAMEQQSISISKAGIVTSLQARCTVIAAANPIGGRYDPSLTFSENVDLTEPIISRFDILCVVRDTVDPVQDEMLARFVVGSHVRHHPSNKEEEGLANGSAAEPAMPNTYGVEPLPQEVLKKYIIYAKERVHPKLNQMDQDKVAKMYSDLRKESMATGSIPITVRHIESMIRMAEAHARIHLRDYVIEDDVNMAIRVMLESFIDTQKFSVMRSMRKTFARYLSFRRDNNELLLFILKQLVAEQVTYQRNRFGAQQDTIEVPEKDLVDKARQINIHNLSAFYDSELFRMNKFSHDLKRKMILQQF
UniProt Q16626: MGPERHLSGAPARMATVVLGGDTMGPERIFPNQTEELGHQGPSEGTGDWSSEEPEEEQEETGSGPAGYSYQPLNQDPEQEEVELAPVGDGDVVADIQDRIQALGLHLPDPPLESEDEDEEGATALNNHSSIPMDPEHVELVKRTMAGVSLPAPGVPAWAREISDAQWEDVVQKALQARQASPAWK
UniProt P33993, whole entry, looked up: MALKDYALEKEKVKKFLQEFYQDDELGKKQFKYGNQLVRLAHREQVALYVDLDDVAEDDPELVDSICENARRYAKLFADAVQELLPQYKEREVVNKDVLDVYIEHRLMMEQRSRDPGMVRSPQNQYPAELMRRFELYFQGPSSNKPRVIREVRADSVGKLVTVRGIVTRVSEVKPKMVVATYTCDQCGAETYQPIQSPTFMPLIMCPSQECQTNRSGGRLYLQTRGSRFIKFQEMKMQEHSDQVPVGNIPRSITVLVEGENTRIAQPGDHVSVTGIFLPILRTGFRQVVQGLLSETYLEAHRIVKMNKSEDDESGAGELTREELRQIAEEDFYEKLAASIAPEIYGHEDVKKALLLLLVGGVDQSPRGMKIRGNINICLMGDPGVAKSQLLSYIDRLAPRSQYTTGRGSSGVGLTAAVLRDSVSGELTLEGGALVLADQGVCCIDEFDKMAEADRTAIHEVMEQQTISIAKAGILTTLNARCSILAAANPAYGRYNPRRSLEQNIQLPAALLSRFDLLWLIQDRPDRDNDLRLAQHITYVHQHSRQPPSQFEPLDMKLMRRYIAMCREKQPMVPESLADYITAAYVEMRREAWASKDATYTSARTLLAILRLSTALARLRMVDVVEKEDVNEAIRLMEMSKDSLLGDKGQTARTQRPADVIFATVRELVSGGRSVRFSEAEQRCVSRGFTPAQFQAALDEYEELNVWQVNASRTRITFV
UniProt Q9GZU1, whole entry, looked up: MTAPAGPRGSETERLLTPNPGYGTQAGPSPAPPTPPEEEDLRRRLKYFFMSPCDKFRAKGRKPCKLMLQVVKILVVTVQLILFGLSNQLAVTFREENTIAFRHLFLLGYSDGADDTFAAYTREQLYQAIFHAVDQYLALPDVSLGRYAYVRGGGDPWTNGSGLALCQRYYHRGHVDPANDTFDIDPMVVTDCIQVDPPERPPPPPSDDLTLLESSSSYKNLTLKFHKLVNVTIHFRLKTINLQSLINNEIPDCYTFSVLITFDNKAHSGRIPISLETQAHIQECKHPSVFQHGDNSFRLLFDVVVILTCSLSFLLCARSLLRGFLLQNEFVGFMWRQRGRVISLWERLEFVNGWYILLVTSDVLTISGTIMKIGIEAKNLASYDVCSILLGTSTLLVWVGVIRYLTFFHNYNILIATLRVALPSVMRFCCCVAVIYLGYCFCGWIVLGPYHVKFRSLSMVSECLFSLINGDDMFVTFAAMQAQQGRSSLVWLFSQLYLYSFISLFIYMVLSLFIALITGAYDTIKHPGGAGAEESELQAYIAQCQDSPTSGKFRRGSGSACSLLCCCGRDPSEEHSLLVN
UniProt Q7L590: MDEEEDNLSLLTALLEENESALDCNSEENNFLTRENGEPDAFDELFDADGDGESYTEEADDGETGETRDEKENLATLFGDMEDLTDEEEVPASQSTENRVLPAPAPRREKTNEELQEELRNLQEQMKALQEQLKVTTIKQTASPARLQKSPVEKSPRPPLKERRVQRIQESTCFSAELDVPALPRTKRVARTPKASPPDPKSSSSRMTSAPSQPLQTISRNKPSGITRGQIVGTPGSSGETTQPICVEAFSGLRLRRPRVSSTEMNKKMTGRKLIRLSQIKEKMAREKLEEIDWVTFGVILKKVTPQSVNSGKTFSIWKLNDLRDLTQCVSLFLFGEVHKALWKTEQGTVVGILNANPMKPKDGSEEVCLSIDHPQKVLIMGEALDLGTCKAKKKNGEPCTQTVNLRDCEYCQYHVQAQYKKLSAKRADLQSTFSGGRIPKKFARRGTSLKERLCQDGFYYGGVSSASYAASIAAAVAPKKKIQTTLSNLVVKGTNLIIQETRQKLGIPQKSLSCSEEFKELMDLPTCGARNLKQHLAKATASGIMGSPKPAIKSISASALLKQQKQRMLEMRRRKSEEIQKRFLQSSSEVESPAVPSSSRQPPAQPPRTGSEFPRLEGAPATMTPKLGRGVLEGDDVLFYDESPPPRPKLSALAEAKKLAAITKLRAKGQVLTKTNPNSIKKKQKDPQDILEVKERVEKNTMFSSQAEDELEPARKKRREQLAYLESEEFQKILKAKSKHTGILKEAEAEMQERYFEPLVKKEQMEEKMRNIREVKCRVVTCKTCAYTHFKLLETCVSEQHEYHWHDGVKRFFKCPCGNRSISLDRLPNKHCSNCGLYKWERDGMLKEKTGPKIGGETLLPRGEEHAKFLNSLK
UniProt O60244: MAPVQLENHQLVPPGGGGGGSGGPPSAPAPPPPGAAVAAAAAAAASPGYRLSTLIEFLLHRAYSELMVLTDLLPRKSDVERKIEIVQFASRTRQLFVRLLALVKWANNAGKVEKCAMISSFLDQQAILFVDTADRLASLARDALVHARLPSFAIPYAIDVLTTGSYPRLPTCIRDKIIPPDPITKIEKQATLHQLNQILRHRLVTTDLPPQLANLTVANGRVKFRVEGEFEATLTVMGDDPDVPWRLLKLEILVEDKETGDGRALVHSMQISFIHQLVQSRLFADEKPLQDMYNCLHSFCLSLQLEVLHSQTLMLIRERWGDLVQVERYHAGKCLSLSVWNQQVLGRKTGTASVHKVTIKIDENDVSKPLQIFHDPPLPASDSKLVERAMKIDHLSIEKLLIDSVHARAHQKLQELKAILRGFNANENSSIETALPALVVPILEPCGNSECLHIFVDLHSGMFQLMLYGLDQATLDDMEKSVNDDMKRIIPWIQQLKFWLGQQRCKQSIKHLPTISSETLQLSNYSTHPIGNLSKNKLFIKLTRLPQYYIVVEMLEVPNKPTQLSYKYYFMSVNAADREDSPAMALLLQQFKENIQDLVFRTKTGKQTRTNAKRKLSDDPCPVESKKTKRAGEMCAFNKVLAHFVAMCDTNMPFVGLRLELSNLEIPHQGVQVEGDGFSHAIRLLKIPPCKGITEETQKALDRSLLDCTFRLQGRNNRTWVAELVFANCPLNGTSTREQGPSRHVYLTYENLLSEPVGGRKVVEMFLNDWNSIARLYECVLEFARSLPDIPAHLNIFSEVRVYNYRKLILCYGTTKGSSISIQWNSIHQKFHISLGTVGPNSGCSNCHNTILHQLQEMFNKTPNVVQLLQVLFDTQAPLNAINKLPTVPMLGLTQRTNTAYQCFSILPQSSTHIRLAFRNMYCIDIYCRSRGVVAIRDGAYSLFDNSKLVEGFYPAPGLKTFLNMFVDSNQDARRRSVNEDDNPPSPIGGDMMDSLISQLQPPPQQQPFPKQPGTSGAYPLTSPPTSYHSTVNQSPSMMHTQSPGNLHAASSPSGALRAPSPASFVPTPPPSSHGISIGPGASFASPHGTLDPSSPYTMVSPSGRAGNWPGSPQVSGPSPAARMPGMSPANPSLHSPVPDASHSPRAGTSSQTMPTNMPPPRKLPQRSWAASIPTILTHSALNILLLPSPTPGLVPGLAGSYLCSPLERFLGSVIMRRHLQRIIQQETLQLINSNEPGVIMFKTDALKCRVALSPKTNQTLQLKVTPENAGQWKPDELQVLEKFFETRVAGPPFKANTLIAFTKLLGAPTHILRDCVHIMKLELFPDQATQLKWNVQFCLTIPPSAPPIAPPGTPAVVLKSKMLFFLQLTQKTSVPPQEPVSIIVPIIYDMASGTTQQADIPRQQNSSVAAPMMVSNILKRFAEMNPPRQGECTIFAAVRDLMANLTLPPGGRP

How the values were obtained:
Assay in all cases: log2 fold change, soluble protein after heating vs DMSO (PISA); higher = thermal stabilisation; K562 lysate, 10 uM; active = over 0.2 and 3.5 SD of the protein, either way, in both replicates (recomputed)
nilotinib = compound: Cc1cn(-c2cc(NC(=O)c3ccc(C)c(Nc4nccc(-c5cccnc5)n4)c3)cc(C(F)(F)F)c2)cn1 [nilotinib]
Procedure, shortened: (§1)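 K562 pellets were dounce-homogenised in PBS pH 7.4 with 1 mM MgCl2, and the crude extract at 1 mg/mL protein was treated with 10 μM compound for 30 min. Aliquots were heated for 3 min across 48°C-58°C, pooled, and brought to 0.5% NP-40 at 4°C; soluble protein was the supernatant after 21,000xg for 90 min. Soluble protein was quantified by TMTpro 16plex LC-MS/MS with channel sums equalised, and reported as log2 fold change in thermal stability against DMSO controls, with values from duplicates.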

[1] = compound: Cc1nc(Nc2n[nH]c3c2CN(C(=O)N[C@H](CN(C)C)c2ccccc2)C3(C)C)c2sccc2n1
Procedure, shortened: as §1

dasatinib = compound: Cc1nc(Nc2ncc(C(=O)Nc3c(C)cccc3Cl)s2)cc(N2CCN(CCO)CC2)n1 [dasatinib]
Procedure, shortened: as §1

[2] = compound: Cc1ncc(-c2ccnc(Nc3ccc(S(C)(=O)=O)cc3)n2)n1C(C)C
Procedure, shortened: as §1

[3] = compound: Cn1cc(-c2ccc3c(c2)CCN3C(=O)Cc2cccc(C(F)(F)F)c2)c2c(N)ncnc21
Procedure, shortened: as §1

quisinostat = compound: Cn1cc(CNCC2CCN(c3ncc(C(=O)NO)cn3)CC2)c2ccccc21 [quisinostat]
Procedure, shortened: as §1

tipifarnib = compound: Cn1cncc1[C@@](N)(c1ccc(Cl)cc1)c1ccc2c(c1)c(-c1cccc(Cl)c1)cc(=O)n2C [tipifarnib]
Procedure, shortened: as §1

[4] = compound: NC(=O)Nc1cc(-c2cccc(F)c2)sc1C(=O)N[C@H]1CCCNC1
Procedure, shortened: as §1

[5] = compound: NC(=O)c1cnc(N[C@@H]2CCCC[C@@H]2N)nc1Nc1cccc(-n2nccn2)c1
Procedure, shortened: as §1

[6] = compound: NC1(c2ccc(-c3nc4ccn5c(=O)[nH]nc5c4cc3-c3ccccc3)cc2)CCC1
Procedure, shortened: as §1

[7] = compound: NCC(=O)Nc1ccc(-n2nc(C(F)(F)F)cc2-c2ccc3c(ccc4ccccc43)c2)cc1
Procedure, shortened: as §1

vorinostat = compound: O=C(CCCCCCC(=O)Nc1ccccc1)NO [vorinostat]
Procedure, shortened: as §1

silmitasertib = compound: O=C(O)c1ccc2c(c1)nc(Nc1cccc(Cl)c1)c1ccncc12 [silmitasertib]
Procedure, shortened: as §1

[8] = compound: O=C1NC(=O)C(c2cnc3ccccn23)=C1c1cn2c3c(cc(F)cc13)CN(C(=O)N1CCCCC1)CC2
Procedure, shortened: as §1

entospletinib = compound: c1cn2cc(-c3ccc4cn[nH]c4c3)nc(Nc3ccc(N4CCOCC4)cc3)c2n1 [entospletinib]
Procedure, shortened: as §1

Target | log2 fold change (nilotinib) | log2 fold change [1] | log2 fold change (dasatinib) | log2 fold change [2] | log2 fold change [3] | log2 fold change (quisinostat) | log2 fold change (tipifarnib) | log2 fold change [4] | log2 fold change [5] | log2 fold change [6] | log2 fold change [7] | log2 fold change (vorinostat) | log2 fold change (silmitasertib) | log2 fold change [8] | log2 fold change (entospletinib)
MCCC2 (UniProt Q9HCC0) | inactive: 0.022 | inactive: -0.011 | inactive: 0.088 | inactive: -0.011 | inactive: -0.011 | inactive: -0.011 | inactive: 0.009 | inactive: -0.003 | inactive: -0.03 | inactive: -0.027 | inactive: 0.02 | inactive: 0.041 | inactive: 0.013 | inactive: 0.014 | inactive: -0.023
MCM3 isoform 2 (UniProt P25205) | inactive: -0.011 | inactive: -0.005 | inactive: 0.032 | inactive: 0.002 | inactive: 0.008 | inactive: 0.042 | inactive: 0.008 | inactive: -0.014 | inactive: 0.003 | inactive: -0.013 | inactive: -0.017 | inactive: -0.161 | inactive: 0.033 | inactive: 0.008 | inactive: 0.017
MFSD1 isoform 6 (UniProt Q9H3U5) | inactive: 0.232 | inactive: 0.045 | inactive: -0.086 | inactive: -0.014 | inactive: 0.002 | inactive: 0.046 | inactive: -0.209 | inactive: -0.014 | inactive: 0.035 | inactive: 0.073 | inactive: -0.08 | inactive: -0.08 | inactive: 0.098 | inactive: -0.002 | inactive: 0.026
MFSD12 isoform 3 (UniProt Q6NUT3) | inactive: 0.16 | inactive: 0.074 | inactive: -0.032 | inactive: 0.204 | inactive: -0.077 | inactive: -0.161 | inactive: -0.363 | inactive: 0.125 | inactive: -0.156 | inactive: 0.011 | inactive: 0.051 | inactive: 0.077 | inactive: -0.065 | inactive: 0.046 | 
MCM2 (UniProt P49736) | inactive: -0.036 | inactive: -0.009 | inactive: -0.026 | inactive: 0.006 | inactive: -0.009 | inactive: 0.011 | inactive: -0.003 | inactive: 0.016 | inactive: -0.009 | inactive: -0.016 | inactive: 0.022 | inactive: -0.114 | inactive: 0.015 | inactive: -0.006 | inactive: 0.021
MDH2 (UniProt P40926) | inactive: -0.005 | inactive: 0.007 | inactive: 0.032 | inactive: -0.024 | inactive: -0.007 | inactive: 0.002 | inactive: 0.009 | inactive: -0.001 | inactive: -0.03 | inactive: 0.007 | inactive: -0.002 | inactive: 0.099 | inactive: 0.015 | inactive: -0.016 | inactive: 0.028
MEA1 (UniProt Q16626) | inactive: -0.006 | inactive: -0.007 | inactive: -0.028 | inactive: 0.015 | inactive: 0.014 | inactive: -0.043 | inactive: 0.044 | inactive: 0.077 | inactive: -0.102 | inactive: -0.012 | inactive: 0.02 | inactive: 0.178 | inactive: -0.025 | inactive: 0.023 | inactive: -0.183
MCM7 (UniProt P33993) | inactive: 0.014 | inactive: -0.014 | inactive: 0.022 | inactive: 0.009 | inactive: 0.061 | inactive: -0.002 | inactive: 0.027 | inactive: 0.015 | inactive: 0.01 | inactive: -0.049 | inactive: -0.03 | inactive: -0.121 | inactive: 0.109 | inactive: -0.005 | inactive: 0.004
MCOLN1 (UniProt Q9GZU1) | inactive: -0.143 | inactive: -0.092 | inactive: -0.088 | inactive: -0.297 | inactive: -0.051 | inactive: -0.104 | inactive: 0.037 | inactive: 0.018 | inactive: 0.009 | inactive: -0.012 | inactive: -0.108 | inactive: 0 | inactive: -0.175 | inactive: 0.138 | 
MCM10 (UniProt Q7L590) | inactive: -0.008 | inactive: -0.006 | inactive: 0.012 | inactive: 0.05 | inactive: -0.174 | inactive: -0.222 | inactive: 0.104 | inactive: 0.054 | inactive: 0.049 | inactive: 0.039 | inactive: 0.014 | inactive: -0.189 | inactive: 0.127 | inactive: 0.023 | 
MED14 (UniProt O60244) | inactive: 0.027 | inactive: -0.013 | inactive: -0.012 | inactive: -0.015 | inactive: 0.011 | inactive: -0.021 | inactive: -0.013 | inactive: 0.011 | inactive: 0.015 | inactive: 0.047 | inactive: -0.01 | active: -0.21 | inactive: -0.035 | inactive: 0.002 | inactive: -0.084

Given with tabs: entries from further up.
Target	log2 fold change (nilotinib)	log2 fold change [1]	log2 fold change (dasatinib)	log2 fold change [2]	log2 fold change [3]	log2 fold change (quisinostat)	log2 fold change (tipifarnib)	log2 fold change [4]	log2 fold change [5]	log2 fold change [6]	log2 fold change [7]	log2 fold change (vorinostat)	log2 fold change (silmitasertib)	log2 fold change [8]	log2 fold change (entospletinib)
MEA1 (UniProt Q16626)	inactive: -0.006	inactive: -0.007	inactive: -0.028	inactive: 0.015	inactive: 0.014	inactive: -0.043	inactive: 0.044	inactive: 0.077	inactive: -0.102	inactive: -0.012	inactive: 0.02	inactive: 0.178	inactive: -0.025	inactive: 0.023	inactive: -0.183
MCM7 (UniProt P33993)	inactive: 0.014	inactive: -0.014	inactive: 0.022	inactive: 0.009	inactive: 0.061	inactive: -0.002	inactive: 0.027	inactive: 0.015	inactive: 0.01	inactive: -0.049	inactive: -0.03	inactive: -0.121	inactive: 0.109	inactive: -0.005	inactive: 0.004
